Laboratory results taken from publication PMC8880564, “Design, Synthesis, and Biological Evaluation of a Novel VEGFR-2 Inhibitor Based on a 1,2,5-Oxadiazole-2-Oxide Scaffold with MAPK Signaling Pathway Inhibition” (Pharmaceuticals, 2022).

Test system: NCI-59 human cancer cell lines
Test: NCI-60 one-dose SRB screening, full panel and subpanels
Assay type: cell-based
Settings: 10 µM; for growth percentage, Delta: Delta of the one-dose mean graph; for growth percentage, Range: Range of the one-dose mean graph
Experimental: The structures of the synthesized compounds 6a–h, 12a–c, 11, 13a–c, and 14a–c were submitted to the National Cancer Institute’s Developmental Therapeutics Program (NCI-DTP), and all of them were selected for preliminary in vitro anticancer activity screening against NCI-59 human cancer cell lines at a concentration of 10 µM, using the sulforhodamine B (SRB) assay to determine the growth percentage and cell viability.
The in vitro NCI-60 cell line screening assay was conducted at the National Cancer Institute (NCI), Bethesda, USA against 59 cancer cell lines representing 9 types of cancers, as reported earlier. Briefly, the human cancer cell lines were grown in RPMI 1640 medium containing 5% fetal bovine serum and 2 mM L-glutamine and inoculated into 96-well microtiter plates in 100 μL (5000 to 40,000 cells/well). Then, the plates were incubated at 37 °C, 5% CO2, 95% air, and 100% relative humidity for 24 h. After that, two plates of each cell line were fixed in situ with TCA, to represent cell population at time zero (Tz). The tested compounds were dissolved in DMSO at 400-fold and added so that the final concentration became 10 μM. The plates were then incubated for an additional 48 h followed by the addition of cold TCA to terminate the assay in case of adherent cells. Then, the cells were fixed in situ by cold 50% (w/v) TCA (50 μL; final concentration, 10% TCA) and incubated for 1 h at 4 °C. After discarding the supernatant, the plates were washed 5 times with tap water and air dried. Sulforhodamine B (SRB) solution (100 μL) at 0.4% (w/v) in 1% HOAc was added to each well, and plates were incubated for 10 min. at rt. Then, washing with 1% acetic acid was conducted 5 times to remove the unbound dye followed by air drying. After that, 10 mM trizma base was added to solubilize the bound stain, and the absorbance was read on an automated plate reader at a wavelength of 515 nm. On the other hand, the methodology for suspension cells was the same except that 50 μL of 80% TCA (final concentration, 16% TCA) was gently added to terminate the assay by fixing settled cells at the bottom of the wells. Percentage growth inhibition (GI%) was calculated as follows:
Growth percentage=Ti (test growth in the presence of compound at 10 µM )−Tz (time zero)/C (control growth)−Tz (time zero)×100 for Ti ≥ Tz;
Growth percentage=Ti (test growth in the presence of compound at 10 µM )−Tz (time zero)/Tz (time zero)×100 for Ti < Tz.
where values of 100, 40, 0, −40, and −100 mean no GI, 60% GI, no net G, 40% lethality, and all cells are dead, respectively.
Data are expressed as a one-dose mean graph of growth percentages including the mean, delta, and range.

SMILES: [O-][n+]1onc(-c2ccccc2)c1COc1ccc(Nc2ncnc3c2cnn3-c2ccccc2)cc1 [6a, 4-phenyl-3-((4-((1-phenyl-1H-pyrazolo[3,4-d]pyrimidin-4-yl)amino)phenoxy)methyl)-1,2,5-oxadiazole 2-oxide]
- growth percentage, Delta: 45.85%
- growth percentage, Range: 75.94%

SMILES: Cc1nc(Nc2ccc(OCc3c(-c4ccccc4)no[n+]3[O-])cc2)c2cnn(-c3ccccc3)c2n1 [6b, 3-((4-((6-methyl-1-phenyl-1H-pyrazolo[3,4-d]pyrimidin-4-yl)amino)phenoxy)methyl)-4-phenyl-1,2,5-oxadiazole 2-oxide]
- growth percentage, Delta: 14.77%
- growth percentage, Range: 34.68%

SMILES: Cc1nn(-c2ccccc2)c2ncnc(Nc3ccc(OCc4c(-c5ccccc5)no[n+]4[O-])cc3)c12 [6c, 3-((4-((3-methyl-1-phenyl-1H-pyrazolo[3,4-d]pyrimidin-4-yl)amino)phenoxy)methyl)-4-phenyl-1,2,5-oxadiazole 2-oxide]
- growth percentage, Delta: 24.23%
- growth percentage, Range: 46.84%

SMILES: Cc1nc(Nc2ccc(OCc3c(-c4ccccc4)no[n+]3[O-])cc2)c2c(C)nn(-c3ccccc3)c2n1 [6d, 3-((4-((3,6-dimethyl-1-phenyl-1H-pyrazolo[3,4-d]pyrimidin-4-yl)amino)phenoxy)methyl)-4-phenyl-1,2,5-oxadiazole 2-oxide]
- growth percentage, Delta: 16.39%
- growth percentage, Range: 37.16%

SMILES: [O-][n+]1onc(-c2ccccc2)c1COc1ccc(Nc2ncnc3c2cnn3-c2ccc(Br)cc2)cc1 [6e, 3-((4-((1-(4-bromophenyl)-1H-pyrazolo[3,4-d]pyrimidin-4-yl)amino)phenoxy)methyl)-4-phenyl-1,2,5-oxadiazole 2-oxide]
- growth percentage, Delta: 18.93%
- growth percentage, Range: 36.68%

SMILES: Cc1nc(Nc2ccc(OCc3c(-c4ccccc4)no[n+]3[O-])cc2)c2cnn(-c3ccc(Br)cc3)c2n1 [6f, 3-((4-((1-(4-bromophenyl)-6-methyl-1H-pyrazolo[3,4-d]pyrimidin-4-yl)amino)phenoxy)methyl)-4-phenyl-1,2,5-oxadiazole 2-oxide]
- growth percentage, Delta: 17.85%
- growth percentage, Range: 39.52%

SMILES: Cc1nn(-c2ccc(Br)cc2)c2ncnc(Nc3ccc(OCc4c(-c5ccccc5)no[n+]4[O-])cc3)c12 [6g, 3-((4-((1-(4-bromophenyl)-3-methyl-1H-pyrazolo[3,4-d]pyrimidin-4-yl)amino)phenoxy)methyl)-4-phenyl-1,2,5-oxadiazole 2-oxide]
- growth percentage, Delta: 18.12%
- growth percentage, Range: 50.71%

SMILES: Cc1nc(Nc2ccc(OCc3c(-c4ccccc4)no[n+]3[O-])cc2)c2c(C)nn(-c3ccc(Br)cc3)c2n1 [6h, 3-((4-((1-(4-bromophenyl)-3,6-dimethyl-1H-pyrazolo[3,4-d]pyrimidin-4-yl)amino)phenoxy)methyl)-4-phenyl-1,2,5-oxadiazole 2-oxide]
- growth percentage, Delta: 28.04%
- growth percentage, Range: 68.15%

SMILES: Cc1nn(-c2ccccc2)c2nc(C(F)(F)F)nc(Nc3ccc(NCc4c(-c5ccccc5)no[n+]4[O-])cc3)c12 [12a, 3-(((4-((3-methyl-1-phenyl-6-(trifluoromethyl)-1H-pyrazolo[3,4-d]pyrimidin-4-yl)amino)phenyl)amino)methyl)-4-phenyl-1,2,5-oxadiazole 2-oxide]
- growth percentage, Delta: 37%
- growth percentage, Range: 66.14%

SMILES: [O-][n+]1onc(-c2ccccc2)c1CNc1ccc(Nc2nc(C(F)(F)F)nc3c2cnn3-c2ccc(Br)cc2)cc1 [12b, 3-(((4-((1-(4-bromophenyl)-6-(trifluoromethyl)-1H-pyrazolo[3,4-d]pyrimidin-4-yl)amino)phenyl)amino)methyl)-4-phenyl-1,2,5-oxadiazole 2-oxide]
- growth percentage, Delta: 44.06%
- growth percentage, Range: 79.69%

SMILES: Cc1nn(-c2ccc(Br)cc2)c2nc(C(F)(F)F)nc(Nc3ccc(NCc4c(-c5ccccc5)no[n+]4[O-])cc3)c12 [12c, 3-(((4-((1-(4-bromophenyl)-3-methyl-6-(trifluoromethyl)-1H-pyrazolo[3,4-d]pyrimidin-4-yl)amino)phenyl)amino)methyl)-4-phenyl-1,2,5-oxadiazole 2-oxide]
- growth percentage, Delta: 42.9%
- growth percentage, Range: 84.8%

SMILES: O=c1[nH]c(CCl)nc2c1cnn2-c1ccccc1 [13a]
- growth percentage, Delta: 183.97%
- growth percentage, Range: 244.17%

SMILES: Cc1nn(-c2ccccc2)c2nc(CCl)[nH]c(=O)c12 [13b]
- growth percentage, Delta: 169.18%
- growth percentage, Range: 208.67%

SMILES: Cc1nn(-c2ccc(Br)cc2)c2nc(CCl)[nH]c(=O)c12 [13c]
- growth percentage, Delta: 178.45%
- growth percentage, Range: 209.18%

SMILES: O=c1[nH]c(CNc2ccc(NCc3c(-c4ccccc4)no[n+]3[O-])cc2)nc2c1cnn2-c1ccccc1 [14a, 3-(((4-(((4-oxo-1-phenyl-4,5-dihydro-1H-pyrazolo[3,4-d]pyrimidin-6-yl)methyl)amino)phenyl)amino)methyl)-4-phenyl-1,2,5-oxadiazole 2-oxide]
- growth percentage, Delta: 38.87%
- growth percentage, Range: 75.47%

SMILES: Cc1nn(-c2ccccc2)c2nc(CNc3ccc(NCc4c(-c5ccccc5)no[n+]4[O-])cc3)[nH]c(=O)c12 [14b, 3-(((4-(((3-methyl-4-oxo-1-phenyl-4,5-dihydro-1H-pyrazolo[3,4-d]pyrimidin-6-yl)methyl)amino)phenyl)amino)methyl)-4-phenyl-1,2,5-oxadiazole 2-oxide]
- growth percentage, Delta: 30.23%
- growth percentage, Range: 75.25%

SMILES: Cc1nn(-c2ccc(Br)cc2)c2nc(CNc3ccc(NCc4c(-c5ccccc5)no[n+]4[O-])cc3)[nH]c(=O)c12 [14c, 3-(((4-(((1-(4-bromophenyl)-3-methyl-4-oxo-4,5-dihydro-1H-pyrazolo[3,4-d]pyrimidin-6-yl)methyl)amino)phenyl)amino)methyl)-4-phenyl-1,2,5-oxadiazole 2-oxide]
- growth percentage, Delta: 19.99%
- growth percentage, Range: 49.14%

SMILES: Nc1ccc(NCc2c(-c3ccccc3)no[n+]2[O-])cc1 [compound 11, 3-(((4-aminophenyl)amino)methyl)-4-phenyl-1,2,5-oxadiazole 2-oxide]
- growth percentage, Delta: 23.16%
- growth percentage, Range: 72.47%
